Record: PubChem BioAssay AID1159578 (Peter MacCallum Cancer Centre, 2015)
This is an unselected part of about 18,000 reagents tested. In the full data, about 1,030 (5.7%) were called active. 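Inactive calls also include pools with fewer than 3300 nuclei, whose migration was not assessed.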 The raw values are shown without normalisation. No sequences are given here.

- Test: 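Genome-wide hunt for genes controlling movement of lymphatic endothelial cells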 (primary screen)
- System: human lymphatic endothelial cells
- Reagent: siRNA pool against human genes, 40 nM
- Duration: 48 h after transfection
- Read-out: 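High-content imaging of dye-stained cells in a scratch assay measures filled wound area and nuclei per well; duplicate means given as ratio to mock and robust z-score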
- Direction: migration robust z-score: higher = faster migration into the scratch; migration relative to mock: higher = more scratch area covered than mock; nuclei per well: higher = more cells in the well
- Hit rule: 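Migration changed when robust z exceeds 2 or falls below -2 and mean nuclei number is at least 3300; otherwise not called changed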
- Meaning of the calls: active = migration changed; inactive = no migration change, or too few cells

gene symbol	migration robust z-score	migration class with cell-count check	migration relative to mock	nuclei per well, duplicate mean	Call
EPOR	-2.88	migration z below -2; enough cells	0.25	4359	active
FBXL13	1.69	migration z between -2 and 2; enough cells	1.13	5993	inactive
SLC27A1	-0.42	migration z between -2 and 2; enough cells	0.72	5688	inactive
STRADB	-1.79	migration z between -2 and 2; enough cells	0.46	4210	inactive
SCN10A	1.01	migration z between -2 and 2; enough cells	1	5887	inactive
CLEC12A	-1.87	migration z between -2 and 2; enough cells	0.39	3976	inactive
PINK1	-0.78	migration z between -2 and 2; enough cells	0.66	3896	inactive
MTCL2	0.34	migration z between -2 and 2; enough cells	0.97	4754	inactive
DLG4	-4.72	under 3300 nuclei; migration not judged	-0.1	3036	inactive
NIPSNAP3A	1.77	migration z between -2 and 2; enough cells	1.35	5470	inactive
MAJIN	0.46	migration z between -2 and 2; enough cells	1	5622	inactive
BCO1	1.25	migration z between -2 and 2; enough cells	1.04	5982	inactive
OR2T11	0.29	migration z between -2 and 2; enough cells	0.96	6020	inactive
JAK1	0.1	migration z between -2 and 2; enough cells	0.82	5912	inactive
ZFYVE26	-1.29	migration z between -2 and 2; enough cells	0.55	5397	inactive
CMTM3	-1.52	migration z between -2 and 2; enough cells	0.49	3328	inactive
SSU72	-1.99	migration z between -2 and 2; enough cells	0.37	5654	inactive
FLOT2	2.19	migration z above 2; enough cells	1.46	5374	active
PRSS22	-0.47	migration z between -2 and 2; enough cells	0.71	5098	inactive
MRPL44	-0.49	migration z between -2 and 2; enough cells	0.76	6380	inactive
RBM19	-0.36	migration z between -2 and 2; enough cells	0.78	6793	inactive
CIBAR2	-1.15	migration z between -2 and 2; enough cells	0.59	6050	inactive
ACTL10	-0.49	migration z between -2 and 2; enough cells	0.76	4978	inactive
CD1D	-1.15	migration z between -2 and 2; enough cells	0.58	5990	inactive
ADGRG1	0.39	migration z between -2 and 2; enough cells	0.88	7730	inactive
ZNF33A	0.03	migration z between -2 and 2; enough cells	0.81	5366	inactive
CCDC81	-0.22	migration z between -2 and 2; enough cells	0.83	5612	inactive
PLEKHG2	0.88	migration z between -2 and 2; enough cells	1.1	4622	inactive
CDAN1	0.8	migration z between -2 and 2; enough cells	1.09	4748	inactive
SGSH	-1.29	migration z between -2 and 2; enough cells	0.55	5032	inactive
LRRC18	2.52	migration z above 2; enough cells	1.53	6622	active
NARS2	-1.03	migration z between -2 and 2; enough cells	0.62	6241	inactive
BPY2	0.67	migration z between -2 and 2; enough cells	1.06	6260	inactive
LOC284009	-0.57	migration z between -2 and 2; enough cells	0.74	4926	inactive
LAPTM4B	1.17	migration z between -2 and 2; enough cells	1.19	5728	inactive
AQP9	-0.21	migration z between -2 and 2; enough cells	0.76	5258	inactive
ATP11C	-0.7	migration z between -2 and 2; enough cells	0.7	6224	inactive
VMP1	-0.12	migration z between -2 and 2; enough cells	0.86	5146	inactive
PRAMEF9	-0.9	migration z between -2 and 2; enough cells	0.65	3944	inactive
WDR35	0	migration z between -2 and 2; enough cells	0.88	7172	inactive
DEFB123	-0.32	migration z between -2 and 2; enough cells	0.8	5222	inactive
MINPP1	-0.94	migration z between -2 and 2; enough cells	0.62	5089	inactive
IPPK	-3.14	under 3300 nuclei; migration not judged	0.2	3060	inactive
CPM	-0.1	migration z between -2 and 2; enough cells	0.78	5256	inactive
GPX1	-0.9	migration z between -2 and 2; enough cells	0.65	4741	inactive
COASY	-4.34	under 3300 nuclei; migration not judged	-0.03	3028	inactive
SUCLG1	0.13	migration z between -2 and 2; enough cells	0.83	6394	inactive
OR7A5	-1.68	under 3300 nuclei; migration not judged	0.45	3238	inactive
ADAT1	-0.26	migration z between -2 and 2; enough cells	0.76	4258	inactive
OXR1	0.24	migration z between -2 and 2; enough cells	0.94	6584	inactive
PPP6R1	-3.56	migration z below -2; enough cells	-0.04	4812	active
ATP13A3	-0.29	migration z between -2 and 2; enough cells	0.75	6048	inactive
SCPEP1	0.94	migration z between -2 and 2; enough cells	0.98	5915	inactive
SMC5	-0.77	migration z between -2 and 2; enough cells	0.68	5276	inactive
MMP23B	-0.8	migration z between -2 and 2; enough cells	0.68	5778	inactive
DPP3	2.08	migration z above 2; enough cells	1.2	5256	active
LRRC14	0.36	migration z between -2 and 2; enough cells	0.98	5673	inactive
SPMIP9	2.21	migration z above 2; enough cells	1.46	6096	active
TBC1D21	-2.15	migration z below -2; enough cells	0.32	4957	active
SCRIB	-0.24	migration z between -2 and 2; enough cells	0.82	5616	inactive
COL17A1	0.12	migration z between -2 and 2; enough cells	0.92	5959	inactive
UBE2T	-1.09	migration z between -2 and 2; enough cells	0.59	5220	inactive
SVIL	0.36	migration z between -2 and 2; enough cells	0.98	5777	inactive
SEC63	0.6	migration z between -2 and 2; enough cells	0.92	6368	inactive
EPM2A	-0.18	migration z between -2 and 2; enough cells	0.77	5386	inactive
AMZ1	0.7	migration z between -2 and 2; enough cells	1.06	6310	inactive
EXO5	1.09	migration z between -2 and 2; enough cells	1.17	5616	inactive
GLA	1.19	migration z between -2 and 2; enough cells	1.04	5177	inactive
C1GALT1C1	-0.19	migration z between -2 and 2; enough cells	0.84	5194	inactive
CAVIN3	0.3	migration z between -2 and 2; enough cells	0.97	5442	inactive
PDZK1IP1	-1.8	migration z between -2 and 2; enough cells	0.42	3807	inactive
DDR2	0.24	migration z between -2 and 2; enough cells	0.85	6405	inactive
DOHH	-0.26	migration z between -2 and 2; enough cells	0.76	5592	inactive

Entries above with an active call (7):
gene symbol	migration robust z-score	migration class with cell-count check	migration relative to mock	nuclei per well, duplicate mean	Call
EPOR	-2.88	migration z below -2; enough cells	0.25	4359	active
FLOT2	2.19	migration z above 2; enough cells	1.46	5374	active
LRRC18	2.52	migration z above 2; enough cells	1.53	6622	active
PPP6R1	-3.56	migration z below -2; enough cells	-0.04	4812	active
DPP3	2.08	migration z above 2; enough cells	1.2	5256	active
SPMIP9	2.21	migration z above 2; enough cells	1.46	6096	active
TBC1D21	-2.15	migration z below -2; enough cells	0.32	4957	active
